{"source": "patent US20120010264A1", "about": "“NOVEL MEDICAMENT FOR TREATING COGNITIVE IMPAIRMENT” (Dainippon Sumitomo Pharma Co., Ltd., priority 2009, published 2012)", "key": {"[1]": {"test_system": "LPS-induced cognitive impairment mouse", "experiment": "LPS-induced cognitive impairment model, Y-maze test (alternation behavior)", "assay_type": "in vivo", "details": "LPS i.c.v., percentage of alternation behavior in Y-maze, listed as rosiglitazone", "protocol": "It is known that lipopolysaccharide (LPS) can experimentally induce an inflammatory condition in brain like in Alzheimer's dementia patients. Thus, LPS-induced model is thought as a good disease model to study cognitive impairment caused by inflammation in Alzheimer's dementia (Neurosci. Res., 61, 113, 2008).\nIn Example 4-2, 5 μg of LPS (Eschenchia coli 055:B5, SIGMA) was intracerebroventricularly administered to a mouse (Slc:ddY mouse, 4 weeks old, male, Japan SLC, Inc.) in both ventricles, i.e. 2.5 μl of 1 mg/ml LPS was administered to each ventricle. LPS induced cognitive impairment in Y-maze test was appeared 4 days after treatment. (i.e. decrease of alternation behavior). Compound A (10, 30, 100 mg/kg, p.o., n=14-16) or rosiglitazone (1, 3, 10 mg/kg, p.o., n=8) was administered 30 minutes before the LPS administration, and 1, 2, 3 days after the LPS administration, and also 1 hour before the Y-maze test to evaluate the effect for improving cognitive function. 0.5% Methylcellulose solution was used as a solvent of each compound."}, "[2]": {"test_system": "rats with scopolamine-induced cognitive impairment", "experiment": "Scopolamine-induced cognitive impairment model, passive avoidance test", "assay_type": "in vivo", "details": "1-10 mg/kg, p.o.; scopolamine rat", "from_the_text": "It is known that scopolamine is a muscarinic acetylcholine receptor antagonist which causes memory impairment in animals and human. Thus, in order to evaluate the efficacy of an anti-Alzheimer's drug, a scopolamine-induced cognitive-impairment model is used in many evaluation tests of cognitive function including a passive avoidance test (Eur. J. Pharmacol., 383, 231, 1999). In Example 6, the effect of Compound A and rosiglitazone on cognitive function was studied using a passive avoidance test using rats with scopolamine-induced cognitive impairment.\nCompound A (3, 10, 30 mg/kg) or rosiglitazone (1, 3, 10 mg/kg) was orally administered to a rat 60 minutes before training for the passive avoidance test. Scopolamine (0.5 mg/kg) or saline was intraperitoneally administered 30 minutes before the training. In the training period, the rat was put in a bright compartment and was allowed to explore for 10 seconds. Then, a door between the bright compartment and the dark one was opened, and as the rat went into the dark compartment, the door was closed. Three seconds later, the rat was given electroconvulsive shock (0.5 mA, 3 seconds). The passive avoidance response test was carried out 24 hours after the training. The rat was put in the bright compartment and was monitored to record the time that the rat stayed in the bright compartment (step-through latency) for up to 300 seconds. […]"}, "[3]": {"test_system": "patient with mild to moderate Alzheimer's dementia", "details": "8 mg (high dose), 6 months; cited from earlier work"}}, "note": "At least one compound was matched to its structure with a doubt left.", "data": [{"smiles": "CN(CCOc1ccc(CC2SC(=O)NC2=O)cc1)c1ccccn1", "note": "(stereo not shown) [Rosiglitazone, rosiglitazone]", "values": [{"measurement": "Alternation behavior", "setting": "[1]; 3 mg/kg p.o.", "value": "significantly improved"}, {"measurement": "Alternation behavior", "setting": "[1]; 10 mg/kg p.o.", "value": "significantly improved"}, {"measurement": "Effect on step-through latency with statistical significance", "setting": "[2]", "value": "did not increase"}, {"measurement": "Cognitive function in non-ApoE4 carrier patients", "setting": "[3]", "value": "improved cognitive function"}]}]}
